From ChEMBL document CHEMBL3988442, “University of Dundee, Small-Polar-MMV Screening Library” (2021).

Protein sequences, listed by entry. Tags and fused reporters are not part of them.
UniProt E9BF75, entry or part of it: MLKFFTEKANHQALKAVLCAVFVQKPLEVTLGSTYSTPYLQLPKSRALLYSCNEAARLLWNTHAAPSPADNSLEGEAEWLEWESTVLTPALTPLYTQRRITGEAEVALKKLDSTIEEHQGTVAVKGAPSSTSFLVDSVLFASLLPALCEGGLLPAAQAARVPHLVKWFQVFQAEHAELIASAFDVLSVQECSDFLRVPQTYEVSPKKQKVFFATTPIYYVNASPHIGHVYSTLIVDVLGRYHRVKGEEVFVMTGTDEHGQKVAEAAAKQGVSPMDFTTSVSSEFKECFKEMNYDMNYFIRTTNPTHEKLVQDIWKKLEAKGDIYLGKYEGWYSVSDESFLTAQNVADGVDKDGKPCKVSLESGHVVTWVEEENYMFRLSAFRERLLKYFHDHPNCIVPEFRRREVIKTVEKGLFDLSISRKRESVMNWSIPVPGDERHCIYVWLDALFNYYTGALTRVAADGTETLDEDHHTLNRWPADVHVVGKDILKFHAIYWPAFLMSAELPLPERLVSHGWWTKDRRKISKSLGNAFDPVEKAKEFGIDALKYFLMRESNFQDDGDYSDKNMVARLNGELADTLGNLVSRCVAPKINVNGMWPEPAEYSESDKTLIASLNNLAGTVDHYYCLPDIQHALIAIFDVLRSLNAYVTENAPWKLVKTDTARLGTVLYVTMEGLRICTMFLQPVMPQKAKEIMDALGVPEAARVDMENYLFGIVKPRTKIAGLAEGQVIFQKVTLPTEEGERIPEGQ

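Methionyl-tRNA synthetase (putative), Leishmania donovani (UniProt E9BF75). Primary screen of methionyl-tRNA synthetase; the read-out is not stated. The test concentration is not given. Values are per cent inhibition. Of about 68,000 compounds tested this way, about 24 (0.035%) reached 50% or more in at least one test.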

Results are percentages, as filed. How 0% and 100% were set is not recorded. Most values in the screen are low, and negative values occur. Compounds were drawn at random from those tested, without regard to their results.

Result for COc1ccc(N2CCN(C(=O)CCc3n[nH]c(C)n3)CC2=O)cc1 was -12.3%. With O=C(c1cccnc1-c1ccc2c(c1)OCCO2)N1CCCC1 the screen gave 3.377%. O=C(Nc1cc(-c2ccncc2)no1)C1CC1 gave 14.29%. O=C(CSc1nnc(N2CCCC2)s1)NC(=O)Nc1ccccc1 gave 14.74%. With CCS(=O)(=O)NCC1CCN(c2cnccn2)CC1 the screen gave 10.82%.

Cc1ccoc1-c1nnc(CN2CCCC(Cn3cncn3)C2)o1 (stereo not shown) gave 4.294%. With Cc1ccccc1C(=O)N1Cc2c(Cn3ccnc3)nn(C)c2C1 the screen gave 12.64%. CCN(C)C(=O)c1ncn2c(C3CCN(S(C)(=O)=O)CC3)ccnc12 read 15.94%. With COc1ccccc1CN1CC[C@]2(C[C@@H](OCC(=O)N(C)C)CO2)C1 the screen gave 12.32%. CC(=O)N1CCCC(c2ccc(CO)c(-c3c(C)noc3C)n2)C1 (stereo not shown) gave 8.491%.

O=C(Cc1cccs1)N1Cc2nc(COCC3CC3)oc2C1 read 11.95%. COc1ccc(C(=O)NCC(c2cccn2C)N2CCN(C)CC2)cc1 (stereo not shown) gave 13.02%. For COc1cccc(CC(=O)N2CC[C@@H]3CN(C)S(=O)(=O)[C@@H]3CC2)c1 the result was 9.341%. CN(C)c1ncccc1CNS(=O)(=O)c1ccccc1F read 1.045%. CCc1cc(CNC(=O)Nc2cc(F)cc(N3CCCC3)c2)on1 gave 19.31%.

CN1CCCC1CNC(=O)CCCOc1cccc(Br)c1 (stereo not shown) read 10.38%. O=C(O)CCCC(=O)N1CCC(c2noc3cc(F)ccc23)CC1 read 10.57%. COc1cc(CNC(C)Cn2ccnc2)cc2c1OCCO2 (stereo not shown) gave -1.344%. For CCN1CC(COC(=O)c2cc(Br)ccc2F)CC1=O (stereo not shown) the result was 6.977%. For Cc1cccc(C(=O)N2CCn3cc(CNC(=O)CC4CC4)nc3C2)n1 the result was 11.11%.

With CN(C)S(=O)(=O)N1C[C@@H]2CC[C@H](C1)N(Cc1cccc(C#N)c1)C2 the screen gave 12.77%. Result for Cc1ccccc1OCCCC(=O)NC(C)c1nnc2n1CCC2 (stereo not shown) was 15.64%. CCOCC(=O)N1CCCn2c(CN3CCOCC3)nnc2C1 gave 16.56%. For N#CCCn1cnc2c(Br)cc(Br)cc2c1=O the result was 14.04%. O=C(Cn1cccnc1=O)NCc1cccnc1OCC(F)(F)F gave 7.666%.

For Cn1nccc1C(=O)N1CCOC(Cc2ccc(Cl)cc2)C1 (stereo not shown) the result was 9.646%. Result for CS(=O)(=O)NCc1cc2n(n1)CCCN(Cc1cccc(C#N)c1)C2 was 15.56%. Result for Cc1c(CN2CCOCC2)c(O)n(CCO)c(=O)c1C#N was -7.297%. CCc1nc(CCn2cc(-c3nccn3C)nn2)no1 gave -1.229%. COCC1CN(S(=O)(=O)Cc2ccc(C)cc2)Cc2c1cnn2C (stereo not shown) gave 10.51%.

CCN(Cc1ccc(O)c(C(=O)O)c1)CC1CCCO1 (stereo not shown) gave 9.779%. With CN(Cc1ccco1)C(=O)Nc1ccc(=O)n(C)c1 the screen gave 7.829%. For Cc1cc(N(C)Cc2cc(C(C)(C)C)n[nH]2)nc(-c2cccnc2)n1 the result was -11.46%. Cc1ccn(-c2ccc(C(=O)N3CCCC(C(N)=O)C3)cc2)n1 (stereo not shown) read 2.347%. Cc1nc(CSc2ccc(C(F)(F)F)cn2)no1 read 18.75%.

O=C(COc1ccc(Cl)cc1)NCc1nncn1C1CC1 gave 14.29%. With O=C(CCc1c(F)cccc1F)N1CCCCC1Cn1cccn1 (stereo not shown) the screen gave 15.47%. N#Cc1cccc(CN2C(=O)c3ccccc3CS2(=O)=O)c1 read 16.57%. With Cc1ccc(CC(=O)N2CCOCC2c2ncon2)cc1 (stereo not shown) the screen gave 10.61%.

Once more, the final 2:

{"structure": "N#Cc1cccc(CN2C(=O)c3ccccc3CS2(=O)=O)c1", "Inhibition": 16.57}
{"structure": "Cc1ccc(CC(=O)N2CCOCC2c2ncon2)cc1", "stereo": "stereo not shown", "Inhibition": 10.61}